These results are taken from PMC5969521, “Actin-related proteins regulate the RSC chromatin remodeler by weakening intramolecular interactions of the Sth1 ATPase” (Communications Biology, 2018).

Chains of the proteins cited; added tags and fusions are not shown. Residues count along the entry.
UniProt Q05123: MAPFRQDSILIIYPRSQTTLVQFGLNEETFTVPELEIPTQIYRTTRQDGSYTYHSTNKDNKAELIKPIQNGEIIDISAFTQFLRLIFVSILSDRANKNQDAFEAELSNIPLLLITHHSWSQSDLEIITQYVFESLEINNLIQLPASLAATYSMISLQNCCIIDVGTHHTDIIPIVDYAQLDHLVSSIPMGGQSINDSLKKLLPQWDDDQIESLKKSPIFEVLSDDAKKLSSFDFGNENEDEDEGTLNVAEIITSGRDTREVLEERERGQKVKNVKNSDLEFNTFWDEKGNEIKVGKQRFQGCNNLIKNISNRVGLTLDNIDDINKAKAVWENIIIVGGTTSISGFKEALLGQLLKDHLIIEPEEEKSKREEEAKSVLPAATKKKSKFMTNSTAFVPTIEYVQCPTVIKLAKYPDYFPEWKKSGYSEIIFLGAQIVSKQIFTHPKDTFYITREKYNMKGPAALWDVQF
UniProt P32597, residues 388-1097: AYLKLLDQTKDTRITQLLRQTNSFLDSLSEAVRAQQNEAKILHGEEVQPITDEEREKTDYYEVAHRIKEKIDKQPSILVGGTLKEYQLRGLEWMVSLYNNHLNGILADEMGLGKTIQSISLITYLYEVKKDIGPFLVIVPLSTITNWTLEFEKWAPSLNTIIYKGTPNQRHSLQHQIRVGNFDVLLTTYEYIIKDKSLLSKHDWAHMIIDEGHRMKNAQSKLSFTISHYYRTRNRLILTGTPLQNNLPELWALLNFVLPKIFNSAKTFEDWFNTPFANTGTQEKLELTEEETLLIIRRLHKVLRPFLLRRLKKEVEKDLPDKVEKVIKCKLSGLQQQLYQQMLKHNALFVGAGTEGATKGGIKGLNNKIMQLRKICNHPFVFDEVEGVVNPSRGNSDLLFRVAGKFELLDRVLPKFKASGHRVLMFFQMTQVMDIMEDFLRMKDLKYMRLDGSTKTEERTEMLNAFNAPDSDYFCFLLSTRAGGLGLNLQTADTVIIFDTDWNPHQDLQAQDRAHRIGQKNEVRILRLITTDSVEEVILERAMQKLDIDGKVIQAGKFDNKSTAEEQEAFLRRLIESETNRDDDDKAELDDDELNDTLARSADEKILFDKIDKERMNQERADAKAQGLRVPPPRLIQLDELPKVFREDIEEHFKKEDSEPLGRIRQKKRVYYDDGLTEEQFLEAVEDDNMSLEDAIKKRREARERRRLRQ
UniProt Q12406: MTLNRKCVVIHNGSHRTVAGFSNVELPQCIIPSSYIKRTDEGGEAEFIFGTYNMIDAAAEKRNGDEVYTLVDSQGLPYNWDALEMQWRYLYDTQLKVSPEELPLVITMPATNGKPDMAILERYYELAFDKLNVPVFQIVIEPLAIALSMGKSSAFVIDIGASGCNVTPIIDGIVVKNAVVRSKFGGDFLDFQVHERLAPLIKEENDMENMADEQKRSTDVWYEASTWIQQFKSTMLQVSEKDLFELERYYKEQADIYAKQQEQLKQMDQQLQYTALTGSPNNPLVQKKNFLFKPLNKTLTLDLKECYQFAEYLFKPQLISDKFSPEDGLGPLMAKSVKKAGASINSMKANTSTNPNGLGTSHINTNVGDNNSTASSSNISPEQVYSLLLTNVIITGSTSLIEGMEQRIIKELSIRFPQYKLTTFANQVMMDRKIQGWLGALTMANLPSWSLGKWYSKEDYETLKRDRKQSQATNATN

These are yes or no findings as the source states them, for the method shown. Some binding calls cover weakened binding; strength is not graded here.

Experiment [1] deals with Arp9 (budding yeast) (UniProt Q05123). The experiment can be described thus: crystal structure; Rtt102-Arp7/9 at 10 mg/mL incubated with 1 mM ATP; 20% PEG 3350, ammonium sulfate, 16 °C; 3.25 Å, two copies of the complex in the P1 cell; both purified.
Experiment [2] deals with Sth1_(388–1097) (budding yeast) (UniProt P32597). The experiment can be described thus: SEC-MALS; Sth1_(388–1097) (100 μM for the sample with DNA) with or without the 20-bp DNA duplex; TSKgel SuperSW2000 column, DAWN HELEOS MALS detector; both purified. A general note: SEC sorts molecules by how far they enter the pores of the column.

Take Arp7 (from UniProt Q12406 1-477): the binding entry in experiment [1] was “binds”.

For the molecule “Sth1_(388–1097) (from UniProt P32597 388-1097) (domain or fragment)”, the binding entry in experiment [2] is “no binding”.

B1: Rtt102 (protein, UniProt P53330 1-157)
chain: MDPQTLITKANKVSYYGNPTSKESWRYDWYQPSKVSSNVQQPQQQLGDMENNLEKYPFRYKTWLRNQEDEKNLQRESCEDILDLKEFDRRILKKSLMTSHTKGDTSKATGAPSANQGDEALSVDDIRGAVGNSEAIPGLSAGVNNDNTKESKDVKMN
Turning to B1, the binding result in experiment [1] was “binds”.
